# Laboratory results: the supplement of paper PMC8728848
# This is one part of the list.
# B1: FimA (Actinomyces oris) (protein)
# chain: MHHHHHHSSGVDLGTENLYFQSNAETPNYGNIKTDATGSLVIHKHLTGGGKDIGTPTGTAQNADDKGPAVEGVVFTAYPITDINLKDPAGWDTISNLSRTGVPDSACANPAAPTLGAHQFGTPKVSPATTKEGLATITEMPVQAYLVCETTTPGDIVQKAKPFVVTIPHPNTAAGADGQWIYDVNVYPKNEAIDVDKTIQAQKLNGYGVGSLIKFPVESTAPTLDAKSFYKYFQLKDTLDERLSEVTATDVSLEGTPLQPTDYKVETKQQTVTVTFTAEGLKKIKAAPGKKVSAVFQGKVTKAGNGAITNRAQVISDTLYAEQPPTPETPPTDPENPPTSDEVISRWGDLSIKKVDTHQQGQTKAGLQGAQFQLYKAKNAYANTCSNEKEGAPIAINGQTTLTTDAQGAIDIKGLFISDSIDGADRDNQVNAMERCYVLVETKAPAGYVLPAGNGAATPVKVKAGEETTDNVTVENTKQSVPGLPLTG
# Assays:
# Experiment in all cases: glycan array binding signal (z-score within array); higher = stronger binding
# Details in all cases: glycan notation: IUPAC condensed, linker removed
# [1] = target: Neu5Ac(a2-3)Gal(b1-4)GlcNAc(b1-3)Gal(b1-4)GlcNAc(b1-3)Gal(b1-4)GlcNAc
# Procedure, shortened: (§1)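 Negative Z-scores can be read as non-binding. The Z-score is calculated within each array and then averaged across arrays of one protein sequence at different concentrations or buffers and across linkers. Arrays, 3228 in all, were curated from the Consortium for Functional Glycomics database and kept only where the protein sequence was available.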
# [2] = target: Neu5Ac(a2-3)Gal(b1-4)GlcNAc(b1-3)Gal(b1-4)GlcNAc(b1-3)Gal(b1-4)GlcNAc(b1-2)Man(a1-3)[Neu5Ac(a2-3)Gal(b1-4)GlcNAc(b1-3)Gal(b1-4)GlcNAc(b1-3)Gal(b1-4)GlcNAc(b1-2)Man(a1-6)]GalNAc
# Procedure, shortened: as §1
# [3] = target: Neu5Ac(a2-3)Gal(b1-4)GlcNAc(b1-3)Gal(b1-4)GlcNAc(b1-3)GalNAc
# Procedure, shortened: as §1
# [4] = target: Neu5Ac(a2-3)Gal(b1-4)GlcNAc(b1-3)Gal(b1-4)GlcNAc(b1-3)[Neu5Ac(a2-3)Gal(b1-4)GlcNAc(b1-3)Gal(b1-4)GlcNAc(b1-6)]GalNAc
# Procedure, shortened: as §1
# [5] = target: Neu5Ac(a2-3)Gal(b1-4)GlcNAc(b1-3)Gal(b1-4)GlcNAc(b1-6)[Gal(b1-3)]GalNAc
# Procedure, shortened: as §1
# [6] = target: Neu5Ac(a2-3)Gal(b1-4)GlcNAc(b1-3)Gal(b1-4)[Fuc(a1-3)]GlcNAc
# Procedure, shortened: as §1
# [7] = target: Neu5Ac(a2-3)Gal(b1-4)GlcNAc(b1-3)GalNAc
# Procedure, shortened: as §1
# [8] = target: Neu5Ac(a2-3)Gal(b1-4)GlcNAc(b1-3)[Neu5Ac(a2-3)Gal(b1-4)GlcNAc(b1-6)]GalNAc
# Procedure, shortened: as §1
# [9] = target: Neu5Ac(a2-3)Gal(b1-4)GlcNAc(b1-6)GalNAc
# Procedure, shortened: as §1
# [10] = target: Neu5Ac(a2-3)Gal(b1-4)GlcNAc(b1-6)[Gal(b1-3)]GalNAc
# Procedure, shortened: as §1
# [11] = target: Neu5Ac(a2-3)Gal(b1-4)GlcNAc(b1-6)[Neu5Ac(a2-3)Gal(b1-3)]GalNAc
# Procedure, shortened: as §1
# [12] = target: Neu5Ac(a2-3)Gal(b1-4)GlcNAc6S
# Procedure, shortened: as §1
# [13] = target: Neu5Ac(a2-3)Gal(b1-4)[Fuc(a1-3)]GlcNAc
# Procedure, shortened: as §1
# [14] = target: Neu5Ac(a2-3)Gal(b1-4)[Fuc(a1-3)]GlcNAc(b1-2)Man
# Procedure, shortened: as §1
# [15] = target: Neu5Ac(a2-3)Gal(b1-4)[Fuc(a1-3)]GlcNAc(b1-3)Gal
# Procedure, shortened: as §1
# [16] = target: Neu5Ac(a2-3)Gal(b1-4)[Fuc(a1-3)]GlcNAc(b1-3)Gal(b1-4)GlcNAc
# Procedure, shortened: as §1
# [17] = target: Neu5Ac(a2-3)Gal(b1-4)[Fuc(a1-3)]GlcNAc(b1-3)Gal(b1-4)[Fuc(a1-3)]GlcNAc(b1-3)Gal(b1-4)[Fuc(a1-3)]GlcNAc
# Procedure, shortened: as §1
# [18] = target: Neu5Ac(a2-3)Gal(b1-4)[Fuc(a1-3)]GlcNAc(b1-3)GalNAc
# Procedure, shortened: as §1
# [19] = target: Neu5Ac(a2-3)Gal(b1-4)[Fuc(a1-3)]GlcNAc(b1-6)[Gal(b1-3)]GalNAc
# Procedure, shortened: as §1
# [20] = target: Neu5Ac(a2-3)Gal(b1-4)[Fuc(a1-3)]GlcNAc(b1-6)[Neu5Ac(a2-3)Gal(b1-3)]GalNAc
# Procedure, shortened: as §1
# [21] = target: Neu5Ac(a2-3)Gal(b1-4)[Fuc(a1-3)]GlcNAc6S
# Procedure, shortened: as §1
# [22] = target: Neu5Ac(a2-3)Gal6S(b1-4)GlcNAc
# Procedure, shortened: as §1
# [23] = target: Neu5Ac(a2-3)Gal6S(b1-4)[Fuc(a1-3)]GlcNAc
# Procedure, shortened: as §1
# Neu5Ac(a2-3)GalNAc = target: Neu5Ac(a2-3)GalNAc
# Procedure, shortened: as §1
# [24] = target: Neu5Ac(a2-3)GalNAc(b1-4)GlcNAc
# Procedure, shortened: as §1
# [25] = target: Neu5Ac(a2-3)[GalNAc(b1-4)]Gal(b1-4)Glc
# Procedure, shortened: as §1
# [26] = target: Neu5Ac(a2-3)[GalNAc(b1-4)]Gal(b1-4)GlcNAc
# Procedure, shortened: as §1
# [27] = target: Neu5Ac(a2-3)[GalNAc(b1-4)]Gal(b1-4)GlcNAc(b1-3)GalNAc
# Procedure, shortened: as §1
# [28] = target: Neu5Ac(a2-3)[Neu5Ac(a2-6)]GalNAc
# Procedure, shortened: as §1
# Neu5Ac(a2-6)Gal = target: Neu5Ac(a2-6)Gal
# Procedure, shortened: as §1
# [29] = target: Neu5Ac(a2-6)Gal(b1-3)GlcNAc(b1-3)[Gal(b1-4)GlcNAc(b1-6)]Gal(b1-4)Glc
# Procedure, shortened: as §1
# Neu5Ac(a2-6)Gal(b1-4)Glc = target: Neu5Ac(a2-6)Gal(b1-4)Glc
# Procedure, shortened: as §1
# [30] = target: Neu5Ac(a2-6)Gal(b1-4)GlcNAc
# Procedure, shortened: as §1
# [31] = target: Neu5Ac(a2-6)Gal(b1-4)GlcNAc(b1-2)Man
# Procedure, shortened: as §1
# [32] = target: Neu5Ac(a2-6)Gal(b1-4)GlcNAc(b1-2)Man(a1-3)Man(b1-4)GlcNAc(b1-4)GlcNAc
# Procedure, shortened: as §1
# [33] = target: Neu5Ac(a2-6)Gal(b1-4)GlcNAc(b1-2)Man(a1-3)[Gal(b1-4)GlcNAc(b1-2)Man(a1-6)]Man(b1-4)GlcNAc(b1-4)GlcNAc
# Procedure, shortened: as §1
# [34] = target: Neu5Ac(a2-6)Gal(b1-4)GlcNAc(b1-2)Man(a1-3)[GlcNAc(b1-2)Man(a1-6)]Man(b1-4)GlcNAc(b1-4)GlcNAc
# Procedure, shortened: as §1
# [35] = target: Neu5Ac(a2-6)Gal(b1-4)GlcNAc(b1-2)Man(a1-3)[GlcNAc(b1-4)][Neu5Ac(a2-6)Gal(b1-4)GlcNAc(b1-2)Man(a1-6)]Man(b1-4)GlcNAc(b1-4)GlcNAc
# Procedure, shortened: as §1
binder,measurement,setting,value
B1,glycan array binding signal (z-score),[1],0.624
same,glycan array binding signal (z-score),[2],0.065
same,glycan array binding signal (z-score),[3],-0.901
same,glycan array binding signal (z-score),[4],-0.237
same,glycan array binding signal (z-score),[5],1.32
same,glycan array binding signal (z-score),[6],-0.822
same,glycan array binding signal (z-score),[7],-0.305
same,glycan array binding signal (z-score),[8],-0.289
same,glycan array binding signal (z-score),[9],-0.287
same,glycan array binding signal (z-score),[10],-0.629
same,glycan array binding signal (z-score),[11],-0.8
same,glycan array binding signal (z-score),[12],-0.213
same,glycan array binding signal (z-score),[13],-0.6
same,glycan array binding signal (z-score),[14],0.157
same,glycan array binding signal (z-score),[15],-0.326
same,glycan array binding signal (z-score),[16],0.151
same,glycan array binding signal (z-score),[17],-0.105
same,glycan array binding signal (z-score),[18],0.75
same,glycan array binding signal (z-score),[19],0.766
same,glycan array binding signal (z-score),[20],-0.351
same,glycan array binding signal (z-score),[21],-0.128
same,glycan array binding signal (z-score),[22],-0.585
same,glycan array binding signal (z-score),[23],-0.916
same,glycan array binding signal (z-score),Neu5Ac(a2-3)GalNAc,-0.006
same,glycan array binding signal (z-score),[24],-0.801
same,glycan array binding signal (z-score),[25],-0.487
same,glycan array binding signal (z-score),[26],-0.88
same,glycan array binding signal (z-score),[27],-0.484
same,glycan array binding signal (z-score),[28],0.518
same,glycan array binding signal (z-score),Neu5Ac(a2-6)Gal,-0.031
same,glycan array binding signal (z-score),[29],-0.252
same,glycan array binding signal (z-score),Neu5Ac(a2-6)Gal(b1-4)Glc,0.554
same,glycan array binding signal (z-score),[30],-0.461
same,glycan array binding signal (z-score),[31],-0.714
same,glycan array binding signal (z-score),[32],0.709
same,glycan array binding signal (z-score),[33],1.55
same,glycan array binding signal (z-score),[34],0.269
same,glycan array binding signal (z-score),[35],-0.49

# Retrieved one by one from above:
binder,measurement,setting,value
B1,glycan array binding signal (z-score),Neu5Ac(a2-6)Gal(b1-4)Glc,0.554
same,glycan array binding signal (z-score),[31],-0.714
same,glycan array binding signal (z-score),[18],0.75
